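Luminescence from an EWS-FLI1 target-promoter (NR0B1) reporter, set against a CMV-promoter reporter, two days after silencing single genes in TC32 Ewing sarcoma cells. Each siRNA was applied at 20 nM. A z-score of the log NR0B1-over-CMV signal, less the median of siRNAs with the same seed; more negative means a stronger specific loss of the NR0B1 reporter.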

This is part of the screen; most of the strongest results are not listed here. Sequences are the guide (antisense) strand, without overhang.

siRNA,gene,seed-corrected z-score
UUGCGUUUACCAAAGAGCC,RINT1,0.003259
ACGAAUUCCACUUAAAUGG,LACTB,0.5425
UUAUCUAUAAACUCCGCCG,BCKDHA,-0.3763
AAACUUAUUCAUAGCAUCC,MOXD1,0.2454
UUCAAAUACAACUAUGUUC,TMEM158,-0.5889
UACUCGAUAUUACAUCUGC,TMEM133,0.02988
UCACUAUGCAGGUUGAACC,SLC9A3R2,0.4926
ACUGCAAUGAGUGCUGUGC,SMAGP,-0.03354
AGCUAUAUAAGGUCAUUCC,APLP2,1.932
UGUUAAACCAGAGUGCUUG,BAZ2A,-0.5266
UGCAAGUUAGAAGAUAUGC,MECOM,-0.2395
AUUCGUUUCUGAUUCAUUG,TCF7L2,-0.09315
UCACGAAACUCAAUCAUUC,PURG,-0.09895
UGAUCAUUCACCCAGGUAC,CDIP1,-0.2315
UCAGUUUGUACAGGAUUGU,ARF5,0.06028
UGCGCUUUGUAUCUUCUCC,MED21,0.3892
UUUCUUGUAGAGUCCUAGG,SAR1AP1,1.511
UUUGUGGAUAUGCUAGUAG,POLR3B,-0.7175
UGAUACUUCAGCAUAGUCC,POLR3C,0.3497
UUACCGAGAAUCACUGAGG,EXOSC2,0.2444
AAACUGGUCUCGAUCAUCC,XPO4,0.0568
UUGACGAUCAAAAUAAGGC,YLPM1,0.9653
AAAGGGAGUCCUGCUAGUC,VARS,0.01722
UACGGUGGAAGAACCUUUG,SLC35G5,-1.892
UUUACUGAACCGGUCAAUC,RAB29,0.4881
UGCCCAUCAGGAUUUCUGG,NLK,-0.09643
AUCAAUGUCUUUAAAGUGG,LINC01085,0.6664
UGUUAGGAUAUUCCAACCC,NDUFS1,0.2116
AACCUUUUCAGAUAACACC,MAGT1,-0.8591
UCAGUACCAAGUAUCAUUC,PLSCR5,1.664
UUAGGAAUAUUUUAUCUCG,KBTBD11,0.744
AUGCAGAUCAGGAAGUAUG,AMELY,0.5486
UUCACGUUUAUAGACCACC,NCAPG,-0.4049
AACGGUCACCUCAUAUUCC,IL17RA,-1.573
UUUGUUGUUGCUGGUAACA,IFT22,-1.578
AUGGGAACCAAUGCAACUG,EZH1,-0.3148
UCAUUGUCAUCUACAAACG,NFE2L2,-0.3318
UUACUUGUUCUUGCCAGGC,HIST2H2AB,1.031
UUGAGUACUUUGAACAUUG,DCK,0.4291
UCCCUUGCAAGGUUGUUGU,LINC01197,-0.5619
UUAUAGACGACAACUCUUC,TRIB2,-0.3312
AACGUAUUUAUCCACUUCG,KLHL13,-0.7151

Some entries from above, unchanged:

* UUAGGAAUAUUUUAUCUCG against KBTBD11 | seed-corrected z-score 0.744
* UUAUCUAUAAACUCCGCCG against BCKDHA | seed-corrected z-score -0.3763
* ACUGCAAUGAGUGCUGUGC against SMAGP | seed-corrected z-score -0.03354
* UCACGAAACUCAAUCAUUC against PURG | seed-corrected z-score -0.09895
* UCCCUUGCAAGGUUGUUGU against LINC01197 | seed-corrected z-score -0.5619

Source: PubChem BioAssay AID1159506 (NCATS, 2015).